The record followed here is the supplement of paper PMC3682954.

Several values for one entry are separate records, joined by “and”; a condition that tells them apart may be missing. Identical values can stand only once. Counter-ions that a name gives are not always drawn. ± gives the standard deviation of the averaged measurements. Some of the results follow. Many values rest on one well or one pass, so single values are uncertain.

For the assay, the system named is RAW 264.7. The assay can be described thus: HMGB1-induced TNF-alpha production relative to HMGB1-stimulated control; higher = more TNF-alpha secretion (less inhibition). To be noted: stimulus: HMGB1 5 ug/ml, 18 h.
Setting [1] is: compound concentration: 1 ug/ml.

In the case of `S=c1[nH]cnc2nc[nH]c12`, where the note is “compound concentration: 3 uM”, the “HMGB1-induced TNF-alpha production” value was 86.3 ± 2.5%. As for `S=c1[nH]cnc2nc[nH]c12` [Mercaptopurine], the “HMGB1-induced TNF-alpha production” value (compound concentration: 3 uM) was found to be 102%. On the same count and under the same terms, then `COc1cc2c(cc1OC)[C@@H]1C(=O)c3ccc4c(c3O[C@@H]1CO2)C=CC(C)(C)O4`, with 99.4%.

On to `C1CCN2CC3CC(CN4CCCC[C@H]34)C2C1` (stereo partly specified), for which the “HMGB1-induced TNF-alpha production” value under setting [1] was determined as 75.2%. As to `NCCCCN` [Putrescine dihydrochloride], the “HMGB1-induced TNF-alpha production” value (compound concentration: 3 uM) was determined as 105%. Still for that read-out and setting: then `CN(Cc1ccc(C(C)(C)C)cc1)Cc1cccc2ccccc12` [Butenafine], with 103 ± 16%; and `CC[C@@]1(O)C(=O)OCc2c1cc1n(c2=O)Cc2cc3c(CN(C)C)c(O)ccc3nc2-1`, with 94.4% and 81.1%; and `CC[C@@]1(O)C(=O)OCc2c1cc1n(c2=O)Cc2cc3c(CN(C)C)c(O)ccc3nc2-1` [Topotecan], with 87 ± 1.6%. Turning to `Nc1nnc(-c2cccc(Cl)c2Cl)c(N)n1`, the “HMGB1-induced TNF-alpha production” value (compound concentration: 3 uM) was 96.6 ± 12%. Still for that read-out and setting: then `Nc1nnc(-c2cccc(Cl)c2Cl)c(N)n1` [Lamotrigine], with 113 ± 9.4%. Same read-out and setting: then `Nc1nc(=O)[nH]cc1F` [Flucytosine], with 99.8%. Still for that read-out and setting: the result for `Nc1nc(=O)[nH]cc1F` reads 89%. As to `Oc1cc(O)cc(/C=C/c2ccc(O)c(O)c2)c1` [Piceatannol], the “HMGB1-induced TNF-alpha production” value (compound concentration: 3 uM) is 119%. Still for that read-out and setting: then `Cc1nc(N=Nc2cc(S(=O)(=O)O)c3cc([N+](=O)[O-])cc(S(=O)(=O)O)c3c2)c(COP(=O)(O)O)c(C=O)c1O` [PPNDS tetrasodium], with 111%; and `Cc1cccc(C)c1NC(=O)CN1CCN(CCCC(c2ccc(F)cc2)c2ccc(F)cc2)CC1` [Lidoflazine], with 61.2%; and `Cc1cccc(C2CN(C)CCc3c2cc(O)c(O)c3Cl)c1` (stereo unspecified), with 118%. The same measure, in the same setting: the result for `Cc1c(C)c2c(c(C)c1O)CCC(C)(CCCC(C)CCCC(C)CCCC(C)C)O2` (stereo not drawn) [alpha-TOCHOPHEROL] reads 97%. Still for that read-out and setting: the result for `COc1cc(C)c(Cc2cnc(N)nc2N)cc1OC` reads 102%; that for `CC(=O)O[C@]1(C(C)=O)CC[C@H]2[C@@H]3C=C(C)C4=CC(=O)CC[C@]4(C)[C@H]3CC[C@@]21C` [Megestrol acetate], 109%. Turning to `CC(=O)O[C@]1(C(C)=O)CC[C@H]2[C@@H]3C=C(C)C4=CC(=O)CC[C@]4(C)[C@H]3CC[C@@]21C`, the “HMGB1-induced TNF-alpha production” value (compound concentration: 3 uM) is 97.7 ± 24%. Same read-out and setting: then `CC(=O)O[C@]1(C(C)=O)CC[C@H]2[C@@H]3C=C(C)C4=CC(=O)CC[C@]4(C)[C@H]3CC[C@@]21C` [Megestrol Acetate], with 99.8%; and `NC[C@H]1O[C@H](O[C@H]2[C@H](O)[C@@H](O[C@H]3O[C@H](CO)[C@@H](O)[C@H](N)[C@H]3O)[C@H](N)C[C@@H]2N)[C@H](N)[C@@H](O)[C@@H]1O`, with 91.8%. As to `CC/C=C\C/C=C\C/C=C\CCCCCCCC(=O)O` [Linolenic acid], the “HMGB1-induced TNF-alpha production” value under setting [1] came out at 78.9%. As for `C#CC1(O)CC[C@H]2[C@@H]3CCC4=CC(=O)CC[C@@H]4[C@H]3CC[C@@]21CC` (stereo partly specified), the “HMGB1-induced TNF-alpha production” value (compound concentration: 3 uM) is 84.3%. The same measure, in the same setting: the result for `O=c1c(-c2ccccc2)c1-c1ccccc1` [diphenylcyclopropenone] reads 114%; that for `CC(C)(C)NCC(O)COc1cccc2c1CC(O)C(O)C2` (stereo unspecified), 87.2%; that for `CC(C)(C)NCC(O)COc1cccc2c1CC(O)C(O)C2` (stereo unspecified) [Nadolol], 117%. Same read-out and setting: then `C[C@H](CCC(=O)NCCS(=O)(=O)O)[C@H]1CC[C@H]2[C@@H]3[C@H](O)C[C@@H]4C[C@H](O)CC[C@]4(C)[C@H]3C[C@H](O)[C@]12C` [Sodium Taurocholate hydrate], with 85.2%; and `C[C@H](CCC(=O)NCCS(=O)(=O)O)[C@H]1CC[C@H]2[C@@H]3[C@H](O)C[C@@H]4C[C@H](O)CC[C@]4(C)[C@H]3C[C@H](O)[C@]12C` [Taurocholic acid], with 87.9%. Still for that read-out and setting: then `Cc1ccc(S(=O)(=O)/C=C/C#N)cc1`, with 39.1%; and `CCCn1c(=O)c2[nH]c(-c3ccc(OCC(=O)NCCN)cc3)nc2n(CCC)c1=O` [Xanthine amine congener], with 97.3%. With `CC(=O)OC[C@H]1OC=C[C@@H](OC(C)=O)[C@H]1OC(C)=O` [3,4,6-Tri-O-acetyl-D-galactal], the “HMGB1-induced TNF-alpha production” value under setting [1] turned out to be 85.8%. As to `CCOCCn1c(N2CCCN(C)CC2)nc2ccccc21` [Emedastine], under “compound concentration: 3 uM”, the “HMGB1-induced TNF-alpha production” value came out at 100%. With `CN1CC(=O)N=C1NC(=O)Nc1cccc(Cl)c1` [Fenobam], the “HMGB1-induced TNF-alpha production” value (compound concentration: 3 uM) was found to be 120%. In the case of `CC[C@H](C)C(=O)O[C@H]1C[C@H](O)C=C2C=C[C@H](C)[C@H](CC[C@@H](O)C[C@@H](O)CC(=O)O)[C@H]21`, where the note is “compound concentration: 3 uM”, the “HMGB1-induced TNF-alpha production” value stood at 71.4%. Take `CC[C@H](C)C(=O)O[C@H]1C[C@H](O)C=C2C=C[C@H](C)[C@H](CC[C@@H](O)C[C@@H](O)CC(=O)O)[C@H]21` [PRAVASTATIN Sodium]: the “HMGB1-induced TNF-alpha production” value (compound concentration: 3 uM) is 103%.

Regarding `CC[C@H](C)C(=O)O[C@H]1C[C@H](O)C=C2C=C[C@H](C)[C@H](CC[C@@H](O)C[C@@H](O)CC(=O)O)[C@H]21` [Pravastatin], under “compound concentration: 3 uM”, the “HMGB1-induced TNF-alpha production” value worked out at 103%. On the same count and under the same terms, the result for `CCCc1c(OCCCOc2ccc(OCC(=O)O)cc2)ccc(C(C)=O)c1O` reads 93.4%.

In the case of `CC1=C(C(=O)O)N2C(=O)[C@@H](NC(=O)[C@H](N)c3ccccc3)[C@H]2SC1` [Cephalexin monohydrate], where the note is “compound concentration: 3 uM”, the “HMGB1-induced TNF-alpha production” value was 83.4 ± 21%.

Consider `CC1=C(C(=O)O)N2C(=O)[C@@H](NC(=O)[C@H](N)c3ccccc3)[C@H]2SC1`, for which the “HMGB1-induced TNF-alpha production” value (compound concentration: 3 uM) was found to be 84%.

For `CC1=C(C(=O)O)N2C(=O)[C@@H](NC(=O)[C@H](N)c3ccccc3)[C@H]2SC1` [Cephalexin hydrate], where the note is “compound concentration: 3 uM”, the “HMGB1-induced TNF-alpha production” value was determined as 81.6%.
